From patent US20130316963A1, “INNATE DEFENCE REGULATORY PEPTIDE COMPOSITIONS FOR TREATMENT OF ARTHRITIS” (UNIVERSITY OF MANITOBA, priority 2010, published 2013)
Part of at least one peptide drawing is inferred or uncertain, most often the ends. Residues, ends and D or L forms follow the SMILES beside them.

System: human FLS cells
Test: MMP-3 production in tissue culture supernatants of cytokine-stimulated human FLS cells (ELISA)
Type: cell-based
Details: 24 hr, peptide added at time of stimulation, IDR-1002 100 μg/ml, IDR-1 200 μg/ml
Experimental: Synovial tissues were obtained from patients with OA in accordance to a protocol by the Institutional Review Board at the University of Manitoba. FLS cells were isolated from the synovial tissues following the procedure taught by Kammouni et al. (2007, Regulation of apoptosis in fibroblast-like synoviocytes by the hypoxia-induced Bcl-2 family member Bcl-2/adenovirus E1B 19-kd protein-interacting protein 3. Arthritis Rheum. 56:2854-2863). […] Cellular cytotoxicity was evaluated by monitoring the release of lactate dehydrogenase (LDH) employing a colorimetric detection kit (Roche Diagnostics, Laval, QC, Canada).
Tissue culture supernatants were harvested after stimulation of human FLS cells with various cytokines (as indicated) with and without IDR peptides after 24 hr. […] Production of MMP-3 in the tissue culture supernatants was monitored using Quantikine® human MMP-3 (total) ELISA kit (Quantikine is a registered trademark of R&D Systems, Inc. Minneapolis, Minn., USA) as per the manufacturer's instructions. […] The concentration of the cytokines or chemokines in the tissue culture supernatants was evaluated by establishing a standard curve with serial dilutions of the recombinant human cytokines or chemokines as required. […]

Compound: CC[C@H](C)[C@H](NC(=O)[C@H](CCCNC(=N)N)NC(=O)[C@H](CO)NC(=O)[C@@H](N)CCCCN)C(=O)N[C@H](C(=O)N1CCC[C@H]1C(=O)N[C@@H](C)C(=O)N[C@H](C(=O)N1CCC[C@H]1C(=O)N[C@H](C(=O)N[C@@H](CO)C(=O)N[C@@H](CC(C)C)C(=O)N[C@@H](CC(C)C)C(=O)O)C(C)C)[C@@H](C)CC)C(C)C [IDR-1, KSRIVPAIPVSLL, reference compound] (H-KSRIVPAIPVSLL-OH)
- suppression of IL-1β-induced MMP-3 production (IL-1β 10 ng/ml, FIG. 1A): did not suppress
- suppression of TNF-α-induced MMP-3 production (TNF-α 10 ng/ml, FIG. 1B): did not suppress
